Experimental data: the supplement of paper PMC3334620
Over roughly 33,000 sequences, “E-score (-0.5 to 0.5)” has its median near -0.0059; the highest 2% begin near 0.26. This is one part of the list.

Target: T1, Cin5 (UniProt P40917)
T1 sequence: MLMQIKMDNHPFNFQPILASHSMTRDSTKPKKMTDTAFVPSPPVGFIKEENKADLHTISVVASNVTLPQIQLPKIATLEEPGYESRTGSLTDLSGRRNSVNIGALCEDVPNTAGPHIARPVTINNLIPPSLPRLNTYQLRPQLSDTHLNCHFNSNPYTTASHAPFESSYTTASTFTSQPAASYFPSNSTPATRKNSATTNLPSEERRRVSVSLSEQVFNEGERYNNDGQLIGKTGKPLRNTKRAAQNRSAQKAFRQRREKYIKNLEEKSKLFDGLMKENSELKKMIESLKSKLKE
Assay: PBM E-score (8-mer binding enrichment) (E-score (-0.5 to 0.5)); higher = stronger / more preferred TF binding
Conditions: protein concentration: 100 nM; construct: GST-full length
Outline: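 Full-length yeast transcription factors or their DNA-binding domains, GST-tagged and expressed with PURExpress, were applied at about 100-200 nM to universal all-10-mer Agilent arrays. These arrays had been made double-stranded by primer extension on fresh or once-stripped slides. Detection used fluorescent anti-GST, normalisation used masliner, and E-scores for ungapped eight-base words pooled with reverse complements came from the Universal PBM Analysis Suite.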

Sequence	PBM E-score
AATACCGC	-0.051
ACCGTATC	-0.0415
CATATAAG	0.0464
CGATTACC	0.143
AGGCTAAG	-0.0874
TCAGAGAA	-0.034
AGACAAAT	0.169
CTTCGCTA	-0.0307
AGTTCGAA	0.0778
CTTCGGTA	-0.00617
GCCTCTTA	-0.0406
CTCTCAAC	-0.125
GTAACAAA	0.15
CACTGACC	-0.0454
AACACAGG	-0.0744
AGAGGATG	0.129
ACCTCACG	-0.0502
GGTATCGA	0.215
CTAATGCC	-0.0696
CGTGAACC	-0.081
ACAGTAGG	-0.00703
AGCGCACG	-0.102
ATTCAGTG	0.211
AGACTATC	-0.154
AGGCGTGC	0.039

A different layout for part of the listing above.

| Sequence | PBM E-score |
| --- | --- |
| CTTCGCTA | -0.0307 |
| AGTTCGAA | 0.0778 |

Following part.

Sequence	PBM E-score
TAGGGAGA	0.0366
ATTAGTTA	0.315
CAGCCGAC	-0.257
TCCTTAGA	-0.305
AGACCTGA	-0.0286
CACGTCCA	-0.203
ATCGCGCA	-0.074
GAACACAA	0.00199
GCCTCTCC	-0.214
AATATTAG	0.215
GTCATCAC	0.108
ATGCTGAA	0.0327
AAGCCATC	0.087
ATCCCCTG	-0.0927
ACTACAGA	0.162
ACTGCTTG	-0.183
TGATATAA	0.207
GAGGGAGC	-0.24
CCGGCGAG	-0.111
AGGTTTAA	0.0387
AAAACGAG	-0.125
CGTCAGTA	-0.0868
AGATACAG	0.0747
GATCTCGA	-0.0371
ACTGGCAG	-0.148

Sequence	PBM E-score
AGGCCTTC	-0.0672
CGACCTTC	0.0416
ACCTGAGT	0.0401
ATGGGTCG	0.0303
GACATGCA	-0.0618
GTCGCATA	0.139
CGACAGCA	-0.0236
GCATGTGA	-0.0288
AATTCCAA	0.0946
CGGCGTAA	0.051
CTCATACA	0.0491
CTTCCAGA	-0.0618
CCTCACTA	0.00837
AAACAGAA	0.111
ATCGGCCC	-0.0144
TATTAGGA	-0.0106
CCTTTTGC	-0.0665
ACTTTAAG	0.154
ACGCCTGC	-0.234
GCATCCGC	0.0057
AGGATCCC	0.0569
GCTCCTAA	-0.186
ACACGCAG	-0.134
GGGATAAA	0.156
GCAACTGA	0.0933

Sequence	PBM E-score
GTCGGAAC	0.0629
GCTCAGAA	-0.0354
GGTCAAAC	-0.0543
CCCTCGCA	-0.0467
GGAGATAA	0.0022
ATAGTGCC	-0.0727
CCCTTGTC	-0.128
CCGCACGC	-0.107
ACCTTACA	-0.0412
TAAGGCTA	-0.103
AAGAGATT	0.122
GCGACGAA	-0.00723
ACGTAAAA	0.166
CCTTTAAA	-0.236
AAGCAATG	0.197
GGTTACTA	0.119
AACACATC	0.00921
ATCCGACG	0.0285
AGAGCGCT	-0.0784
AACTGACG	-0.124
CCGTTCGC	-0.127
CACATAAC	-0.00529
AGTTGAAG	-0.00489
CCGCAGCC	-0.2
AAGCAACC	0.138

A second format for part of the listing above:

| Sequence | PBM E-score |
| --- | --- |
| TAAGGCTA | -0.103 |
| GCGACGAA | -0.00723 |
| ATCCGACG | 0.0285 |

Following part

Sequence	PBM E-score
ACACCCTA	0.00876
ATCGGAAT	0.151
ACATAAGG	0.194
CCTCTGGA	-0.0661
GCCTGTCA	-0.0974
AGGACGAT	-0.0283
GGACGGTA	-0.135
CACGCGAC	-0.0294
AGGAACCG	-0.111
CGCGCATA	0.021
TAACCTTA	-0.021
GGTGGTGA	0.00308
CGTGTTCA	0.0386
AATATACA	0.23
ATTTAAAC	0.217
AGTCACTG	-0.142
CTCCTTAA	-0.192
GGCTGGAC	-0.33
ACGAACTC	0.00437
ATATGTCG	0.0154
ACAGTGCT	-0.0105
ATCTCAAT	0.186
CAGGACGG	-0.232
ACGCTAAT	0.0699
CTGTATTC	0.131

Sequence	PBM E-score
GCTCAAGA	-0.244
GGTGTGTA	-0.0653
CCGAATCC	0.121
CCGATGAG	-0.0359
CCATTGCC	0.044
CGCTCGCC	-0.0405
AGTCTCCA	-0.156
CTCCGCGA	0.0551
CTCTTGCA	-0.088
TAATGGCA	0.128
ATCTCACC	0.0981
ACCTTGAC	0.0353
ACATCCTC	-0.0642
ACCATGAT	0.0535
CTAGTCAA	0.0271
CGGCCAAG	-0.069
GGGTAGAC	-0.243
TTGGCAAA	0.0581
AAACGTGG	-0.095
AGAGAAAT	0.0621
GAGGTGCA	-0.0183
AAAGCGCC	-0.066
CGTTCCTA	-0.167
AAATGAAT	0.0636
AGATAATA	0.237

Sequence	PBM E-score
ACTGGATC	0.0505
CGCCACTC	-0.00075
CAGATCAG	0.115
ATACTGCA	0.156
CGACTATA	0.107
CTATCCAC	-0.00165
ACACACGA	0.135
AGCCCTAA	-0.117
AGTCTCGG	-0.221
ATGGCATA	0.204
AGCCCATG	0.0563
AGGATAGA	0.0885
CCTAATCA	0.221
AGATCCCC	-0.00692
CTTATATC	0.232
CTCTTAAA	0.0655
ATTACTTC	0.126
CCTTTGGA	-0.277
ATGTCCCC	-0.0546
CACTCACC	-0.111
AAGGCTCT	-0.175
AGTCCCCC	-0.394
